From paper PMC8718961, “The CbbQO-type rubisco activases encoded in carboxysome gene clusters can activate carboxysomal form IA rubiscos” (The Journal of Biological Chemistry, 2021)
These are yes or no findings as the source states them, for the method shown. Binding seen in cells or lysates may run through a third protein. Binding calls can cover weak binding; strength is not graded here.

Protein sequences, listed by entry. Tags and fused reporters are not part of them. Lines headed by an entry give the natural chain unless they say otherwise; changes in a name come on top.
UniProt B7JB17: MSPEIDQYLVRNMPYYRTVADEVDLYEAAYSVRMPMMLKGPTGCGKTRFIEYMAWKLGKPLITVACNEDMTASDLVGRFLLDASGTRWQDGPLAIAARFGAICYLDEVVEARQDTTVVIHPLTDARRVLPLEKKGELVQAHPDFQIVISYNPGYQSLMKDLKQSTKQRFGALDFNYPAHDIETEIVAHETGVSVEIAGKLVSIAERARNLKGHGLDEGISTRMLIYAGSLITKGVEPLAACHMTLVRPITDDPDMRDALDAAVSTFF
UniProt D0KZ75: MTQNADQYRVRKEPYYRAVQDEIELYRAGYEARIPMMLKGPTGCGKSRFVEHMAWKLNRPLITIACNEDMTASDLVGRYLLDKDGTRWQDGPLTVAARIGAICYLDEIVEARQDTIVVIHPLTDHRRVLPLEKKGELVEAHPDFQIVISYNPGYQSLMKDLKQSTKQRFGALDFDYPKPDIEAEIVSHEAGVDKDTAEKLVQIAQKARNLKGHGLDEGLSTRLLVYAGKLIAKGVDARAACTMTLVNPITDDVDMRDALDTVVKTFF
UniProt B7JB16: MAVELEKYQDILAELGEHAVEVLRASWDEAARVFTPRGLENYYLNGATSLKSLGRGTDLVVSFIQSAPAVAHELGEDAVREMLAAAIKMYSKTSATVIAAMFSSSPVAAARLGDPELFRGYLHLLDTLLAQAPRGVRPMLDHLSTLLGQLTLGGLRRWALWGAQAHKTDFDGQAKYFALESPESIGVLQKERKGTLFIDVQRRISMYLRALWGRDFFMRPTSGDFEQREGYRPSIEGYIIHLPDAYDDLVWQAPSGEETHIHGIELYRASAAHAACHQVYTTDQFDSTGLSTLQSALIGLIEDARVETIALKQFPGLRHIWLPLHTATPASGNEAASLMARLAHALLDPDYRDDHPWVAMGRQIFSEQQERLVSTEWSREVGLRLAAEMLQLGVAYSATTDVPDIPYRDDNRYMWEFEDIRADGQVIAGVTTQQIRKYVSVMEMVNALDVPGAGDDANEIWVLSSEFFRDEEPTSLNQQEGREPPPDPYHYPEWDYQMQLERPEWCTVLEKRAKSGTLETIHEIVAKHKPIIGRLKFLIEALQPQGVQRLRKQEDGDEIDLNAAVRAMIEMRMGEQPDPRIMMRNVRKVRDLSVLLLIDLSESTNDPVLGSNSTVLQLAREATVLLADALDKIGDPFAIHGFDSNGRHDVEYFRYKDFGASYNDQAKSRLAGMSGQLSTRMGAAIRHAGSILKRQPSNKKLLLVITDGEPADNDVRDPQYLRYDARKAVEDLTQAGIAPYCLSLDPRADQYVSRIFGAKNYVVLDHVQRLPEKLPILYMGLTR
UniProt D0KZ80: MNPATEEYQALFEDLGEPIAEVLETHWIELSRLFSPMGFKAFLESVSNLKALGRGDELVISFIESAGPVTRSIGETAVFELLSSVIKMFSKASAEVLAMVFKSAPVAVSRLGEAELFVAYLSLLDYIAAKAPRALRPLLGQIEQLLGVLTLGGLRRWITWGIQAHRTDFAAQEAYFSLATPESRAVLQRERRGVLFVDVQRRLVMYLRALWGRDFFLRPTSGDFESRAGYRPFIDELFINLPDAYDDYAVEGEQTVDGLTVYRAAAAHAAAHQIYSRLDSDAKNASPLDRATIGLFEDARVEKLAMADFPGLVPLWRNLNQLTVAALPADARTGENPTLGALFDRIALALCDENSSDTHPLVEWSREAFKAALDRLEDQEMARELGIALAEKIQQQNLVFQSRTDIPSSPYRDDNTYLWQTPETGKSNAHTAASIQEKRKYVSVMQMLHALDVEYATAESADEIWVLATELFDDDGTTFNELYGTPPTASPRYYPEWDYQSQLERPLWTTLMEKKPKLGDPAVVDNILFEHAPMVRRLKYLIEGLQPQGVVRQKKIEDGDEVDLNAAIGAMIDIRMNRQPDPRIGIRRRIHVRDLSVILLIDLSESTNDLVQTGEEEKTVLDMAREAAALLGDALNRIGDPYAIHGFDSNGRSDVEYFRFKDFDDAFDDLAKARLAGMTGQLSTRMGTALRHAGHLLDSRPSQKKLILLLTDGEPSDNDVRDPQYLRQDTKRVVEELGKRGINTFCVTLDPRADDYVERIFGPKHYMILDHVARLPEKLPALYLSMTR

What was measured:
[1] = molecular target: A. ferrooxidans CbbQ3 (CbbQ of the carboxysomal form IA^C gene cluster) (Acidithiobacillus ferrooxidans ATCC23270) (UniProt B7JB17); assay: co-purification; CbbQ and CbbO co-produced in E. coli BL21(DE3); the complex purified by affinity chromatography and size-exclusion chromatography (ion exchange step omitted); SDS-PAGE of the purified complex
[2] = molecular target: H. neapolitanus CbbQ (carboxysomal gene cluster) (Halothiobacillus neapolitanus ATCC23641) (UniProt D0KZ75); assay: co-purification; CbbQ and CbbO co-produced in E. coli BL21(DE3); the complex purified by affinity chromatography, ion exchange chromatography and size-exclusion chromatography; SDS-PAGE of the purified complexes

binding [1] | binding [2] | Substance
binds | – | A. ferrooxidans CbbO3 (CbbO of the carboxysomal form IA^C gene cluster) (from UniProt B7JB16)
– | binds | H. neapolitanus CbbO (carboxysomal gene cluster) (from UniProt D0KZ80)
